From PubChem BioAssay AID1917 (Vanderbilt High Throughput Screening Facility, 2009)
Hit rate of the full screen: of about 3,000 compounds, about 1,600 (53%) were called active. The set was probably picked from earlier hits. Inconclusive means that the source gave no clear call. Such entries were picked first, then a sample of the others.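 How the source made its calls: active means Flux at 10 µM at least 3 SD below or above vehicle control mean in one or both replicates; inconclusive means no clear call, values can overlap the other calls; inactive means the rest.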

Amino acid sequences for entries named in this document (tags omitted). A change or cut given only in a name is not applied to a line headed by its entry.
UniProt P48048: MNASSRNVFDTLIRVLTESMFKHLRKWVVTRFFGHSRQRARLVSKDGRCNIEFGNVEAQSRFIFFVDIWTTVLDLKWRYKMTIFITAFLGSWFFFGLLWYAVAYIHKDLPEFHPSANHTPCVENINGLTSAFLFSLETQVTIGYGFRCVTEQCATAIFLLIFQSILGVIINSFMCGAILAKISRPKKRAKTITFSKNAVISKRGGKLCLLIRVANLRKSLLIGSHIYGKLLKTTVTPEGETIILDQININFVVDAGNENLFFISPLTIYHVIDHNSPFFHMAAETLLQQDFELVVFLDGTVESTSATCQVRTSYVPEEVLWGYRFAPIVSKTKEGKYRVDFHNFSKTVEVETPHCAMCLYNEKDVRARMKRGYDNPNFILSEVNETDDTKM

Target: ATP-sensitive inward rectifier potassium channel 1 (Homo sapiens) (UniProt P48048)
Experiment: retested modulators of human Kir1.1 channel – cell-based, thallium flux, duplicate, resupplied hits, confirmation (AID 1917)
Settings: ROMK thallium flux, fluorescence ratio; at 10 µM; active compounds read low

| Compound | normalized thallium flux (F/F0 slope) |
| --- | --- |
| O=C(CSc1ncc(-c2ccccc2)n1C1CCCC1)N1CCc2ccccc21 | inconclusive: 0.0675 |
| CC(C)C(=O)N1CCC(c2nc(-c3ccc(S(=O)(=O)N4CCN(C)CC4)cc3)no2)CC1 | inactive: 0.0903 |
| CCCCCCCCCCn1ccc(=N)cc1 | inconclusive: 0.0693 |
| O=C(Nc1ccc(O)cc1)C1CC=CCC1 (stereo not drawn) | inactive: 0.0733 |
| C=CCn1c(COc2ccc(Cl)cc2)nnc1SCc1ccc(C#N)cc1 | inconclusive: 0.0708 |
| Cc1ccnc(NC(=O)CCC(=O)N(CC(=O)NC2CCCCC2)Cc2cccs2)c1 | inactive: 0.0767 |
| CCN(CC)S(=O)(=O)c1ccc(C)c(NC(=O)Cn2cnc3cc([N+](=O)[O-])ccc3c2=O)c1 | inconclusive: 0.0949 |
| COc1ccc(OCC(=O)NNc2c3ccccc3nc3ccccc23)cc1 | inconclusive: 0.0663 |
| Cc1ccc(C)c(NC(=O)CSc2nc3c(oc4ccccc43)c(=O)n2-c2ccccc2)c1 | inactive: 0.077 |
| COc1ccc(Cl)cc1NC(=O)CN(C)CC(=O)Nc1ccccc1N1CCOCC1 | inconclusive: 0.0961 |
| O=C(/C=C/c1ccc(Br)cc1)c1ccco1 | inconclusive: 0.0697 |
| COC(=O)c1ccc(NC(=O)c2sc3nc(-c4ccccc4)cn3c2C)cc1 | inconclusive: 0.0698 |
| S=C(NCCc1ccccc1)NCc1ccccc1Cl | inconclusive: 0.0688 |
| COc1ccccc1Cn1c(CCCO)nc2ccccc21 | inconclusive: 0.0691 |
| COc1ccc2c(c1)[nH]c1c(N3CCSCC3)ncnc12 | inconclusive: 0.0675 |
| COC(=O)c1cc(C)ccc1OCc1ccc([N+](=O)[O-])cc1 | inconclusive: 0.0684 |
| Nc1nn(-c2ccccc2)c(N)c1N=Nc1cccc(F)c1 | inactive: 0.0856 |
| COC(=O)c1ccccc1-c1ccc(/C=N/Nc2nc(N3CCCC3)nc(N3CCCC3)n2)o1 | inconclusive: 0.068 |
| CCC1Oc2ccc(C)cc2N(CC(=O)N(Cc2ccc(C)o2)C2CCCC2)C1=O (stereo not drawn) | active: 0.0648 |
| Cc1c(CN2CCC(CO)(Cc3ccccc3)CC2)c2ccccc2n1C | active: 0.0599 |
| O=S1CCCSC1c1cccnc1 (stereo not drawn) | inactive: 0.0764 |
| COc1cnc(-c2ccccn2)nc1Sc1ccccc1 | inconclusive: 0.0696 |

| Compound | normalized thallium flux (F/F0 slope) |
| --- | --- |
| Nc1[nH]n(-c2ccccc2)c(=O)c1N=Nc1ccc2c(c1)OCO2 | inactive: 0.0863 |
| Cc1ccc(-c2csc(/C(C#N)=C(\O)CCl)n2)cc1 | inconclusive: 0.0688 |
| Cc1ccc(CCN2C(=O)CCC2(C)C(=O)NC2CCCC2)cc1 (stereo not drawn) | inactive: 0.0721 |
| CC1CCCN(c2ccc([N+](=O)[O-])cc2C(=O)c2ccccc2)C1 (stereo not drawn) | inactive: 0.0903 |
| N#CC1=C(SCC(=O)NC23CC4CC(CC(C4)C2)C3)NC(=O)C(C#N)C12CCCCC2 (stereo not drawn) | active: 0.0569 |
| O=C(Nc1cccnc1)c1cc(-c2ccccc2O)on1 | inconclusive: 0.0978 |
| CCn1c(/C=C/Nc2ccccc2)[n+](CC)c2ccc(Cl)cc21 | inconclusive: 0.0664 |
| COc1ccc(C2=NOC(C(=O)NCc3ccco3)C2)cc1 (stereo not drawn) | inconclusive: 0.0954 |
| COc1ccc(CS(=O)(=O)/C(Cl)=C(/Cl)C(=O)Nc2ccc(OC)nc2)cc1 | inconclusive: 0.0688 |
| CCC(C)NC(=S)NNC(=O)c1ccc(C(C)(C)C)cc1 (stereo not drawn) | inconclusive: 0.0715 |
| O=C(Cc1cccs1)N(CC1CCCO1)C1(C(=O)NC2CCCC2)CCCCC1 (stereo not drawn) | inconclusive: 0.0735 |
| COc1ccc(-n2c(O)c(/C=N/NS(=O)(=O)c3ccc(C)cc3)c3ccccc3c2=O)cc1OC | inconclusive: 0.0701 |
| CCOc1ccc2oc(-c3ccccc3)c(C(=O)N3CCN(C)CC3)c2c1 | inconclusive: 0.0683 |
| CCC(C(=O)Nc1nccs1)(C(F)(F)F)C(F)(F)F | inconclusive: 0.0683 |
| Nc1nc(NCc2ccc(Cl)cc2)nc(NCCO)c1[N+](=O)[O-] | inactive: 0.0713 |
| CCOC(=O)C1=C(C)NC(C)=C(C(=O)OC)C1c1cccc(Cl)c1Cl (stereo not drawn) | inactive: 0.0726 |
| O=C(/C=C/c1ccc([N+](=O)[O-])cc1)NCCSc1ccccc1 | inconclusive: 0.0736 |
| COc1ccc(CCn2c(NN)nc3c2c(=O)[nH]c(=O)n3C)cc1 | inconclusive: 0.0994 |
| O=C(O)CCCCCCC1C(=O)NC(=O)N1CCC(O)C1CCCCC1 (stereo not drawn) | inconclusive: 0.0974 |
| c1ccc(-c2c(-c3ccccc3)n(Cc3ccco3)c3ncnc(NCCCn4ccnc4)c23)cc1 | inconclusive: 0.0677 |
| COCCCNC(=O)c1c(N)n(/N=C/c2cccnc2)c2nc3ccccc3nc12 | inconclusive: 0.0728 |
| COCCCNC(=O)CC1C(=O)N(Cc2ccccc2)C(C)c2nc3ccccc3n21 (stereo not drawn) | inactive: 0.0893 |

| Compound | normalized thallium flux (F/F0 slope) |
| --- | --- |
| Cc1cccc(NC(=O)c2ccc(CN3CCN(Cc4ccccc4)CC3)cc2)c1 | inconclusive: 0.0677 |
| O=C(c1cccc(F)c1)N1CCN(C(=O)c2cc(-c3ccc(Cl)cc3Cl)on2)CC1 | inconclusive: 0.0638 |
| Cn1c(=O)c2c(ncn2Cc2ccc(Cl)c(Cl)c2)n(C)c1=O | inconclusive: 0.0689 |
| Cc1cccn2c(=O)c(/C=C3\SC(=S)NC3=O)c(NCCCN3CCOCC3)nc12 | active: 0.0529 |
| COC(=O)Nc1nc2ccc(-c3n[nH]c(=O)c4ccccc34)cc2[nH]1 | inconclusive: 0.0978 |
| CC1Cc2ccccc2N1C(=O)CSc1nnc(Cc2ccccc2)n1CCc1ccccc1 (stereo not drawn) | active: 0.0624 |
| O=C(CN1CCN(Cc2ccccc2)CC1)Nc1ccccc1-c1ccccc1 | inconclusive: 0.0688 |
| CCOC(=O)N1CCN(S(=O)(=O)c2ccc3c(c2)SCC(=O)N3)CC1 | active: 0.0611 |
| NC(CCC(=O)O)C12CC3CC(CC(C3)C1)C2 (stereo not drawn) | inconclusive: 0.0692 |
| COc1ccc(/C=N/NC(=O)c2cccnc2)cc1COc1ccc(NC(C)=O)cc1 | inconclusive: 0.0949 |
| CCCCCCCCOC(=O)c1c(CSC(=N)N)n(C)c2cc(Br)c(OC(C)=O)cc12 | inconclusive: 0.0677 |
| CC1(C)CC(N=C2C([N+](=O)[O-])=CC=C3C2=NC2(CCCCC2)N3O)CC(C)(C)N1 | inactive: 0.0764 |
| COC(=O)CCn1c(C)cc(C(=O)COc2ccccc2C(N)=O)c1C | inconclusive: 0.0686 |
| COc1cc2cc(C(c3nnnn3C(C)(C)C)N3CCc4ccccc4C3)c(=O)[nH]c2cc1OC (stereo not drawn) | inconclusive: 0.0683 |
| O=C(N/N=C/c1ccc(-c2ccc(Br)cc2)o1)c1ccc2c(c1)OCO2 | inactive: 0.0814 |
| CCCN(CCC)CC(O)COc1ccccc1C(=O)Nc1ccccc1 (stereo not drawn) | active: 0.055 |
| O=c1c(Cc2ccccc2)c(O)c2cccc3c4c(n1c23)CCCC4 | inconclusive: 0.0709 |
| COc1cc(CNCCCN2CCOCC2)cc(Br)c1OCc1ccc(Cl)cc1 | inconclusive: 0.0699 |
| CCOc1ccc2[nH]c(=O)c(CN(CCO)C(c3nnnn3C3CCCCC3)C(C)C)cc2c1 (stereo not drawn) | active: 0.0595 |
| CCn1cc(C(=O)NCc2ccc(C)o2)c2cc(OC)c(OC)cc2c1=O | inconclusive: 0.0685 |
| O=C(Nc1cccc(N=Cc2cc(Cl)cc(Br)c2O)c1)c1ccco1 | active: 0.114 |
| COC(=O)COc1ccc(-c2ccc(F)cc2)cc1C=O | inconclusive: 0.101 |

Taken from above:
normalized thallium flux (F/F0 slope), `COc1cc(CNCCCN2CCOCC2)cc(Br)c1OCc1ccc(Cl)cc1` is entered as inconclusive: 0.0699
normalized thallium flux (F/F0 slope), `CCCCCCCCCCn1ccc(=N)cc1` is entered as inconclusive: 0.0693
normalized thallium flux (F/F0 slope), `Cc1ccnc(NC(=O)CCC(=O)N(CC(=O)NC2CCCCC2)Cc2cccs2)c1` is entered as inactive: 0.0767
normalized thallium flux (F/F0 slope), `O=S1CCCSC1c1cccnc1` (stereo not drawn) is entered as inactive: 0.0764
normalized thallium flux (F/F0 slope), `COCCCNC(=O)CC1C(=O)N(Cc2ccccc2)C(C)c2nc3ccccc3n21` (stereo not drawn) is entered as inactive: 0.0893

Remaining list, next part

| Compound | normalized thallium flux (F/F0 slope) |
| --- | --- |
| Cc1ccc(-c2csc(NC(=O)C[n+]3cc(-c4ccccc4)n4c3CCC4)n2)cc1 | active: 0.0601 |
| Cc1cc(-c2csc(NC(=O)c3cc4ccccc4o3)n2)c(C)n1C | inconclusive: 0.0697 |
| Cc1ccn2c(-c3csc(NCc4ccccc4)n3)c(C)nc2c1 | active: 0.06 |
| Cc1cc(C(=O)CN2C(=O)NC3(CCCc4ccccc43)C2=O)c(C)n1Cc1ccccc1 (stereo not drawn) | inactive: 0.0792 |
| O=C(O)c1ccoc1CN1CCCCC1 | inactive: 0.075 |
| Fc1ccc(C2=NNC(=NCc3ccccc3)SC2)cc1F | inconclusive: 0.0695 |
| CCCNC(=S)N1CCN(C(c2ccccc2)c2ccccc2)CC1 | inactive: 0.0824 |
| CC1=NOC(=O)/C1=C\c1ccc(-c2cc(Cl)ccc2Cl)o1 | inconclusive: 0.0705 |
| O=C(COC(=O)/C=C/c1ccc(S(=O)(=O)N2CCOCC2)cc1)NCc1ccc(F)cc1 | inactive: 0.0902 |
| CC(=O)/C=C(\C)Nc1c(C)n(C)n(-c2ccccc2)c1=O | inconclusive: 0.0689 |
| O=C1NC(=O)/C(=C\c2ccc(N3CCOCC3)o2)N1 | inconclusive: 0.0698 |
| COc1cc(C(=O)Nc2ccc3oc(-c4cccnc4)nc3c2)cc(OC)c1OC | inactive: 0.0791 |
| C=CCN(CC=C)S(=O)(=O)c1ccc(NC(=S)NC(=O)/C=C/c2ccc(C)cc2)cc1 | inactive: 0.0845 |
| COc1ccc(Cn2c(-c3ccc(OC)cc3)nc3ccccc32)cc1 | inconclusive: 0.0691 |
| Cc1cccc(COCC(Cc2ccccc2)N2CCN(C(=O)c3cccc(Cl)c3)CCC2=O)c1 (stereo not drawn) | active: 0.0536 |
| Nc1nc(Nc2ccccc2)sc1C(=O)c1ccccc1 | inconclusive: 0.0693 |
| CCOC(=O)c1ccc(-n2c(O)c(/C=N/NC(=O)C3COc4ccccc4O3)c3ccccc3c2=O)cc1 (stereo not drawn) | active: 0.0457 |
| COc1ccccc1C(=O)NCCNC(=O)c1ccco1 | inactive: 0.0765 |
| c1ccc(Oc2nc(Oc3ccccc3)nc(N3CCOCC3)n2)cc1 | inconclusive: 0.0691 |
| O=C(Cn1ncc(Cl)c(Cl)c1=O)N1CCc2ccccc21 | inconclusive: 0.0719 |
| Cc1ccc2c(c1)C(=O)CC(O)(C(F)F)O2 (stereo not drawn) | inactive: 0.0931 |
| COc1ccc(CNc2nc3ccccc3n2C)c(OC)c1 | inactive: 0.0771 |
